No constants are given. Whether binding was seen depends on the method and setting. For some of these results: Binding seen in cells or lysates may run through a third protein. Some binding calls cover weakened binding; strength is not graded here. Values belong to the binder of their own block, whether it stands above or below them.
What was measured:
[1] = target: recombinant human wild-type lamin A (human) (UniProt P02545); assay: co-sedimentation; sucrose density gradient centrifugation; proteins dialysed alone or together from urea into 10 mM Tris-HCl pH 7.5, 1 mM DTT, 300 mM NaCl, 10% sucrose; 10% to 30% sucrose gradient on a 70% cushion, 20 hr at 190,000 x g, 4°C; fractions on Coomassie-stained gels; both purified
[2] = target: lamin A/C (endogenous, mEos3.2-lamin A/C WT mouse dermal fibroblasts) (mouse (endogenous in mouse dermal fibroblasts)) (UniProt P48678); assay: co-IP; soluble extract of mEos3.2-lamin A/C WT mouse fibroblasts (20 mM Tris-HCl pH7.5, 150 mM NaCl, 2 mM EGTA, 2 mM MgCl2, 0.5% NP-40, Benzonase); lamin A/C antibodies (N18, E1, pS22 D2B2E) overnight at 4°C, protein A/G dynabeads; blot for LAP2α (1H11); LAP2α and lamin A/C knockout cells as controls
[3] = target: pS22 lamin A/C (lamin A/C phosphorylated at serine 22; endogenous, mouse dermal fibroblasts) (mouse (endogenous in mouse dermal fibroblasts)) (UniProt P48678); assay: as above

By UniProt entry, the sequences of proteins in these tests, tags left out. Residues count along the entry.
UniProt P02545, residues 1-646: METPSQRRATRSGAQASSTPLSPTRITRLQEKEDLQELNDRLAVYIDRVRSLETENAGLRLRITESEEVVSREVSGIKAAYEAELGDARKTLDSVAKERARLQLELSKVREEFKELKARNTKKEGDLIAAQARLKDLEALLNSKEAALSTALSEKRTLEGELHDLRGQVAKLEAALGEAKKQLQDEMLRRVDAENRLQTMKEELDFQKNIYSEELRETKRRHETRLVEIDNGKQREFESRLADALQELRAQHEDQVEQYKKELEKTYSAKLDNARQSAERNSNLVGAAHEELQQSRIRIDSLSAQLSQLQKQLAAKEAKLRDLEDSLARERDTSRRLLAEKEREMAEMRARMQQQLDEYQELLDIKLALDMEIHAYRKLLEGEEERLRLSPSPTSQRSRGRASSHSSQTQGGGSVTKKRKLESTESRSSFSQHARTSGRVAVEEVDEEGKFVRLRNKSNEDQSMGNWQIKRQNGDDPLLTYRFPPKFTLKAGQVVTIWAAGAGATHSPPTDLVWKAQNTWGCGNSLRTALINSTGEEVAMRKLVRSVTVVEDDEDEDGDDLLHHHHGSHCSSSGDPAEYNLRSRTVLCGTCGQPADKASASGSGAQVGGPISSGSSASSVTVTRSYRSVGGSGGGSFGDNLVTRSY
UniProt P48678, residues 1-647: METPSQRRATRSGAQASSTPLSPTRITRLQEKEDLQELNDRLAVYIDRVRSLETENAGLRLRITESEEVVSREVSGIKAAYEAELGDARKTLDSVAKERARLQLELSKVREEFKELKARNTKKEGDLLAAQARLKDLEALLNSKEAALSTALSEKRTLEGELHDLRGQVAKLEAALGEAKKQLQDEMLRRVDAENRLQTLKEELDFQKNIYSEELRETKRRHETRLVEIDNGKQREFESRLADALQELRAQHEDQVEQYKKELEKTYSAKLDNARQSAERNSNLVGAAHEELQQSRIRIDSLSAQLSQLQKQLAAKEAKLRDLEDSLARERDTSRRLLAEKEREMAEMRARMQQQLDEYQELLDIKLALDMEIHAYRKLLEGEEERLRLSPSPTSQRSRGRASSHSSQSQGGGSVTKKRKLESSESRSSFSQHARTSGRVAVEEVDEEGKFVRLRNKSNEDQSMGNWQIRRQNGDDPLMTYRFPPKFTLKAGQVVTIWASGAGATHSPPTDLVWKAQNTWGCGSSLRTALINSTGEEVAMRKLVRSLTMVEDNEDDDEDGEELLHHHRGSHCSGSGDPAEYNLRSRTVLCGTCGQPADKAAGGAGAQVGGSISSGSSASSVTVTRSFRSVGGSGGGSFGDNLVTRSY

binding [1]: binds
B1: recombinant full-length human LAP2α (protein, UniProt P42166 1-694)
chain: MPEFLEDPSVLTKDKLKSELVANNVTLPAGEQRKDVYVQLYLQHLTARNRPPLPAGTNSKGPPDFSSDEEREPTPVLGSGAAAAGRSRAAVGRKATKKTDKPRQEDKDDLDVTELTNEDLLDQLVKYGVNPGPIVGTTRKLYEKKLLKLREQGTESRSSTPLPTISSSAENTRQNGSNDSDRYSDNEEGKKKEHKKVKSTRDIVPFSELGTTPSGGGFFQGISFPEISTRPPLGSTELQAAKKVHTSKGDLPREPLVATNLPGRGQLQKLASERNLFISCKSSHDRCLEKSSSSSSQPEHSAMLVSTAASPSLIKETTTGYYKDIVENICGREKSGIQPLCPERSHISDQSPLSSKRKALEESESSQLISPPLAQAIRDYVNSLLVQGGVGSLPGTSNSMPPLDVENIQKRIDQSKFQETEFLSPPRKVPRLSEKSVEERDSGSFVAFQNIPGSELMSSFAKTVVSHSLTTLGLEVAKQSQHDKIDASELSFPFHESILKVIEEEWQQVDRQLPSLACKYPVSSREATQILSVPKVDDEILGFISEATPLGGIQAASTESCNQQLDLALCRAYEAAASALQIATHTAFVAKAMQADISQAAQILSSDPSRTHQALGILSKTYDAASYICEAAFDEVKMAAHTMGNATVGRRYLWLKDCKINLASKNKLASTPFKGGTLFGGEVCKVIKKRGNKH

binding [2]: binds
binding [3]: binds
B2: LAP2α (endogenous, mouse dermal fibroblasts) (natural protein, UniProt Q61033 1-693, looked up)
chain: MPEFLEDPSVLTKDKLKSELVANNVTLPAGEQRKDVYVQLYLQHLTARNRPPLAAGANSKGPPDFSSDEEREPTPVLGSGASVGRGRGAVGRKATKKTDKPRLEDKDDLDVTELSNEELLDQLVRYGVNPGPIVGTTRKLYEKKLLKLREQGTESRSSTPLPTVSSSAENTRQNGSNDSDRYSDNDEGKKKEHKKVKSARDCVPFSELASTPSGAFFQGISFPEISTRPPLGRTELQAAKKVQTTKRDPPRETCTDTALPGKGQTHKLAPGRSLFIPSESSYDRCVEKSSSPSSQREFAARLVSAAASPSLIRETTTTYSKDIVENICRGGKSRAQPLRAEEPGVSDQSVFSSEREVLQESERSQVISPPLAQAIRDYVNSLLVQGGVGSLPGTSDSVPTLDVENICKRLSQSSYQDSESLSPPRKVPRLSEKPARGGDSGSCVAFQNTPGSEHRSSFAKSVVSHSLTTLGVEVSKPPPQHDKIEASEPSFPLHESILKVVEEEWQQIDRQLPSVACRYPVSSIEAARILSVPKVDDEILGFISEATPRAATQASSTESCDKHLDLALCRSYEAAASALQIAAHTAFVAKSLQADISQAAQIINSDPSDAQQALRILNRTYDAASYLCDAAFDEVRMSACAMGSSTMGRRYLWLKDCKISPASKNKLTVAPFKGGTLFGGEVHKVIKKRGNKQ
notes: lamin-associated polypeptide 2 alpha (LAP2α), mouse, endogenous, detected with antibody 1H11; also called lamin-associated polypeptide 2 alpha; source: endogenous, mEos3.2-Lmna WT mouse dermal fibroblasts, soluble cell extract

binding [1]: no binding
B3: truncation mutant LAP2α_(1-414) (domain or fragment, UniProt P42166 1-414)
chain: MPEFLEDPSVLTKDKLKSELVANNVTLPAGEQRKDVYVQLYLQHLTARNRPPLPAGTNSKGPPDFSSDEEREPTPVLGSGAAAAGRSRAAVGRKATKKTDKPRQEDKDDLDVTELTNEDLLDQLVKYGVNPGPIVGTTRKLYEKKLLKLREQGTESRSSTPLPTISSSAENTRQNGSNDSDRYSDNEEGKKKEHKKVKSTRDIVPFSELGTTPSGGGFFQGISFPEISTRPPLGSTELQAAKKVHTSKGDLPREPLVATNLPGRGQLQKLASERNLFISCKSSHDRCLEKSSSSSSQPEHSAMLVSTAASPSLIKETTTGYYKDIVENICGREKSGIQPLCPERSHISDQSPLSSKRKALEESESSQLISPPLAQAIRDYVNSLLVQGGVGSLPGTSNSMPPLDVENIQKRIDQ

From publication PMC7939549, “LAP2alpha maintains a mobile and low assembly state of A-type lamins in the nuclear interior” (eLife, 2021)
